These are yes or no findings as the source states them, for the method shown. For part of these data: Binding seen in cells or lysates may run through a third protein. Some entries that bind do so weakly or less than the wild type. Sequences can lack the tags named with a protein. Values belong to the molecule of their own block, whether it stands above or below them.
Assays:
[1] = molecular target: T1, EGFP-FIGNL1 (full length) (human) (UniProt Q6PIW4); assay: co-IP
T1 sequence: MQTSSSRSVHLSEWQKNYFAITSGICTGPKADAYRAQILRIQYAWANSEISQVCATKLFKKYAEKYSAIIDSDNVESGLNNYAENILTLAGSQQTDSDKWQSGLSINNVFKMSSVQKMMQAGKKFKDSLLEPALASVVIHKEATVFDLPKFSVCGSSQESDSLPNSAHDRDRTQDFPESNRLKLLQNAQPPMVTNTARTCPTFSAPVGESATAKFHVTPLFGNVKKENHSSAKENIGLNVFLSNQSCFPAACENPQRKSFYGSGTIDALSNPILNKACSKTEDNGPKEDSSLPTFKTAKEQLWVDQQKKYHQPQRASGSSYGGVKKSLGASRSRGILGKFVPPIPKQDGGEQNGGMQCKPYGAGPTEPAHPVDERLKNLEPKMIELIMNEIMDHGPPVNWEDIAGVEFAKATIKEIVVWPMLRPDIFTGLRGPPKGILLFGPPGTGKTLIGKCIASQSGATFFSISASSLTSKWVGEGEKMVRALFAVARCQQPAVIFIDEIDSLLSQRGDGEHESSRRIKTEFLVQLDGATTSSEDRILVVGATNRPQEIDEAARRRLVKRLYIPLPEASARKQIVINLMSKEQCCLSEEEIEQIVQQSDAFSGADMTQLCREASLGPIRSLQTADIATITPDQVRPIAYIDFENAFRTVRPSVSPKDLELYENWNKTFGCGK

The chains behind the UniProt entries cited, without tags or fusion partners.
UniProt Q06609: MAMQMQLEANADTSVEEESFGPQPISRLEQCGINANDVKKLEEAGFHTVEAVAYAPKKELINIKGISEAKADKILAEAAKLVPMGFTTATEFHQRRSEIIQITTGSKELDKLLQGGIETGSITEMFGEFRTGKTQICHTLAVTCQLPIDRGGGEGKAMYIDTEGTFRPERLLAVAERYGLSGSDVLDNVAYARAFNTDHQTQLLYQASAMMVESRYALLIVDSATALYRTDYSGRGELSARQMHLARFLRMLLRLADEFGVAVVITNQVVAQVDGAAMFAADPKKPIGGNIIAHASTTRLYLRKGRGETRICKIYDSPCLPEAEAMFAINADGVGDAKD

MBP-MMS22L-His (human) = molecular target: T2, MBP-MMS22L-His (human) (UniProt Q6ZRQ5); assay: co-purification
T2 sequence: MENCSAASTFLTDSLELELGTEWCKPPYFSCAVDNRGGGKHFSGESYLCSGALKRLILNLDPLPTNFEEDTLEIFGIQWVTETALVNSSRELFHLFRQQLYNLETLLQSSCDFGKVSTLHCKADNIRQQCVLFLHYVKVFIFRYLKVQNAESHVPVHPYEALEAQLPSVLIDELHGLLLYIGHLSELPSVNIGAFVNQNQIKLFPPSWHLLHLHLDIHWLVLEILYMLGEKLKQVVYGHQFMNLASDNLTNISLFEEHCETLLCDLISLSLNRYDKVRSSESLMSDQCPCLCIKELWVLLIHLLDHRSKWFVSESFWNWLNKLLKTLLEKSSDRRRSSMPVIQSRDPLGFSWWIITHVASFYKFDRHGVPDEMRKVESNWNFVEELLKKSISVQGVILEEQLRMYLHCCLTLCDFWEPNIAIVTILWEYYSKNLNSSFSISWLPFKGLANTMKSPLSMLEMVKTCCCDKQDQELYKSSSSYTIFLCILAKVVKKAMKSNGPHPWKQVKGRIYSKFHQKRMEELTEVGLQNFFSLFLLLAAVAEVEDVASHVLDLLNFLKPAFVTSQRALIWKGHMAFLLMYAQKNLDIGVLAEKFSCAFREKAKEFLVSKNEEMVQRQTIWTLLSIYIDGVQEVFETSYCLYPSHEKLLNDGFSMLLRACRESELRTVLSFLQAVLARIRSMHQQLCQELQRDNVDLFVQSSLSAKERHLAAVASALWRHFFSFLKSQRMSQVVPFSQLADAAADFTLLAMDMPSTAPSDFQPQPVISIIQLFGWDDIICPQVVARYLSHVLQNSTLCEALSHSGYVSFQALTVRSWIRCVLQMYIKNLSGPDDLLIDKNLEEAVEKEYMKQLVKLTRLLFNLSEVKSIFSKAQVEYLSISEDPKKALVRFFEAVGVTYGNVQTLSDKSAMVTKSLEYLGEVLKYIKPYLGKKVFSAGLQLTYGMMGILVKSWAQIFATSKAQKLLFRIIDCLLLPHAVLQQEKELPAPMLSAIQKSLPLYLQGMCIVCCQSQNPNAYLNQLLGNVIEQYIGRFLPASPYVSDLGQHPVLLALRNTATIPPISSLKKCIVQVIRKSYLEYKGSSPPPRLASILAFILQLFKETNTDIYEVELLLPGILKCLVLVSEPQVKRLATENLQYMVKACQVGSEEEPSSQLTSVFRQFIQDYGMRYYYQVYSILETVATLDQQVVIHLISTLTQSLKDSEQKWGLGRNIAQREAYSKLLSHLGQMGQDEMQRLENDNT

binding [1]: binds
Molecule: RAD51 (endogenous, RPE1 nuclear extract) (from UniProt Q06609 1-339)

binding [1]: binds
Molecule: MMS22L-TONSL complex (endogenous, RPE1 nuclear extract) (from UniProt Q6ZRQ5;Q96HA7)

binding (MBP-MMS22L-His (human)): binds
B1: GST-TONSL (protein, UniProt Q96HA7 1-1378)
chain: MSLERELRQLSKAKAKAQRAGQRREEAALCHQLGELLAGHGRYAEALEQHWQELQLRERADDPLGCAVAHRKIGERLAEMEDYPAALQHQHQYLELAHSLRNHTELQRAWATIGRTHLDIYDHCQSRDALLQAQAAFEKSLAIVDEELEGTLAQGELNEMRTRLYLNLGLTFESLQQTALCNDYFRKSIFLAEQNHLYEDLFRARYNLGTIHWRAGQHSQAMRCLEGARECAHTMRKRFMESECCVVIAQVLQDLGDFLAAKRALKKAYRLGSQKPVQRAAICQNLQHVLAVVRLQQQLEEAEGRDPQGAMVICEQLGDLFSKAGDFPRAAEAYQKQLRFAELLDRPGAERAIIHVSLATTLGDMKDHHGAVRHYEEELRLRSGNVLEEAKTWLNIALSREEAGDAYELLAPCFQKALSCAQQAQRPQLQRQVLQHLHTVQLRLQPQEAPETETRLRELSVAEDEDEEEEAEEAAATAESEALEAGEVELSEGEDDTDGLTPQLEEDEELQGHLGRRKGSKWNRRNDMGETLLHRACIEGQLRRVQDLVRQGHPLNPRDYCGWTPLHEACNYGHLEIVRFLLDHGAAVDDPGGQGCEGITPLHDALNCGHFEVAELLLERGASVTLRTRKGLSPLETLQQWVKLYRRDLDLETRQKARAMEMLLQAAASGQDPHSSQAFHTPSSLLFDPETSPPLSPCPEPPSNSTRLPEASQAHVRVSPGQAAPAMARPRRSRHGPASSSSSSEGEDSAGPARPSQKRPRCSATAQRVAAWTPGPASNREAATASTSRAAYQAAIRGVGSAQSRLGPGPPRGHSKALAPQAALIPEEECLAGDWLELDMPLTRSRRPRPRGTGDNRRPSSTSGSDSEESRPRARAKQVRLTCMQSCSAPVNAGPSSLASEPPGSPSTPRVSEPSGDSSAAGQPLGPAPPPPIRVRVQVQDHLFLIPVPHSSDTHSVAWLAEQAAQRYYQTCGLLPRLTLRKEGALLAPQDLIPDVLQSNDEVLAEVTSWDLPPLTDRYRRACQSLGQGEHQQVLQAVELQGLGLSFSACSLALDQAQLTPLLRALKLHTALRELRLAGNRLGDKCVAELVAALGTMPSLALLDLSSNHLGPEGLRQLAMGLPGQATLQSLEELDLSMNPLGDGCGQSLASLLHACPLLSTLRLQACGFGPSFFLSHQTALGSAFQDAEHLKTLSLSYNALGAPALARTLQSLPAGTLLHLELSSVAAGKGDSDLMEPVFRYLAKEGCALAHLTLSANHLGDKAVRDLCRCLSLCPSLISLDLSANPEISCASLEELLSTLQKRPQGLSFLGLSGCAVQGPLGLGLWDKIAAQLRELQLCSRRLCAEDRDALRQLQPSRPGPGECTLDHGSKLFFRRL

— publication doi:10.1101/2024.11.03.621741 (bioRxiv, 2024)
